No constants are given. Whether binding was seen depends on the method and setting. In cells and extracts the contact can be indirect. Binding can be weak; no strength is given. For some assays here: Sequences can lack the tags named with a protein.
Key:
Assay in all cases: pull-down; His-tagged TOB subunit purified from isolated N. crassa mitochondria on Ni-NTA resin (as in ref. 16); eluate run on BNGE, or BNGE then SDS-PAGE (two dimensions), and blotted with antibodies to Tob55, Tob38, Tob37 or Mdm10
[1] = biological target: T1, His-tagged Tob37 (strain Tob37HT) (Neurospora crassa) (UniProt Q7SFC4)
T1 sequence: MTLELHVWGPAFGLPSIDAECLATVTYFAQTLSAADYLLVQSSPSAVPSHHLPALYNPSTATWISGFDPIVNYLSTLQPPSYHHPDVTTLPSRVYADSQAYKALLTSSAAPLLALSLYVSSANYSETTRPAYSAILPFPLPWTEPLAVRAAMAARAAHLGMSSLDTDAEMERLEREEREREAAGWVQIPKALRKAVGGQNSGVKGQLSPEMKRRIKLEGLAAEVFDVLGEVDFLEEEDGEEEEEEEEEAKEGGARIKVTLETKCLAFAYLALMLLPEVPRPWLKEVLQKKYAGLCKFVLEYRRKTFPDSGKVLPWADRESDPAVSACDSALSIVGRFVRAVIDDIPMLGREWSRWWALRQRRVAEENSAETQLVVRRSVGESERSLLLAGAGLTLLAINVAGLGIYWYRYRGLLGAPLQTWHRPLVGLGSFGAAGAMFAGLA

[2] = biological target: T2, His-tagged Tob38 (strain Tob38HT) (Neurospora crassa) (UniProt V5IPB4)
T2 sequence: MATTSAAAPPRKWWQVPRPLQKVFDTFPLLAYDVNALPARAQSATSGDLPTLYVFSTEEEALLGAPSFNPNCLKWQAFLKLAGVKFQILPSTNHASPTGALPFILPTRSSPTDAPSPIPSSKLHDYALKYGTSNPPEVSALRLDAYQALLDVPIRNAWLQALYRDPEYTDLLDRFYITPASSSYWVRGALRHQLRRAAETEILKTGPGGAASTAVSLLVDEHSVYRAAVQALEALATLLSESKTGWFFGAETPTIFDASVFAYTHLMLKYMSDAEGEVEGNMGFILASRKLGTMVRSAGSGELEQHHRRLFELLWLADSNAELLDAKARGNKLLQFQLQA

[3] = biological target: His-tagged short Tob55 (strain Tob55 Short HT) (Neurospora crassa)
[4] = biological target: His-tagged Tob55 (strain Tob55HT) (Neurospora crassa)
[5] = biological target: His-tagged long Tob55 (strain Tob55 Long HT) (Neurospora crassa)
[6] = biological target: His-tagged intermediate Tob55 (strain Tob55 Int HT) (Neurospora crassa)

| Molecule | binding [1] | binding [2] | binding [3] | binding [4] | binding [5] | binding [6] |
| --- | --- | --- | --- | --- | --- | --- |
| Tob55 | binds | binds |  |  |  |  |
| Tob38 (protein, UniProt V5IPB4 1-340) MATTSAAAPPRKWWQVPRPLQKVFDTFPLLAYDVNALPARAQSATSGDLPTLYVFSTEEEALLGAPSFNPNCLKWQAFLKLAGVKFQILPSTNHASPTGALPFILPTRSSPTDAPSPIPSSKLHDYALKYGTSNPPEVSALRLDAYQALLDVPIRNAWLQALYRDPEYTDLLDRFYITPASSSYWVRGALRHQLRRAAETEILKTGPGGAASTAVSLLVDEHSVYRAAVQALEALATLLSESKTGWFFGAETPTIFDASVFAYTHLMLKYMSDAEGEVEGNMGFILASRKLGTMVRSAGSGELEQHHRRLFELLWLADSNAELLDAKARGNKLLQFQLQA |  |  | binds | binds | binds | binds |
| Tob37 (protein, UniProt Q7SFC4 1-442) MTLELHVWGPAFGLPSIDAECLATVTYFAQTLSAADYLLVQSSPSAVPSHHLPALYNPSTATWISGFDPIVNYLSTLQPPSYHHPDVTTLPSRVYADSQAYKALLTSSAAPLLALSLYVSSANYSETTRPAYSAILPFPLPWTEPLAVRAAMAARAAHLGMSSLDTDAEMERLEREEREREAAGWVQIPKALRKAVGGQNSGVKGQLSPEMKRRIKLEGLAAEVFDVLGEVDFLEEEDGEEEEEEEEEAKEGGARIKVTLETKCLAFAYLALMLLPEVPRPWLKEVLQKKYAGLCKFVLEYRRKTFPDSGKVLPWADRESDPAVSACDSALSIVGRFVRAVIDDIPMLGREWSRWWALRQRRVAEENSAETQLVVRRSVGESERSLLLAGAGLTLLAINVAGLGIYWYRYRGLLGAPLQTWHRPLVGLGSFGAAGAMFAGLA |  |  | binds | binds | binds | binds |
| Mdm10 (protein, UniProt Q7SBE0 1-480) MREFMNYITNAFYGATGWNEDNKYNELNATSRELIDFPLPRGLRLTLSSLATPHFATSYQLGSVGVVDGSISYLHSSIPLTHIAAQSDKIPLPALLRCYRRLHDLRSPGQQHYILDADPLSGLPPPPQSARALLGAASDAAVAGGALDGGNTDQDLGIYTHSLLYGRLYLPKSLLEGMIIKRFTQALQVQVRAVSEQSLRNGGTILGLVQYDKGKYGLEGLYSTDGGLLGFRGLYNFGGDASSSTCDPWTPTPGENNNNNNNNNNNNNGNAQAGEKERIYGRFSVGGELYYGTLNKSGGMSLGARFATLPAHRGTPLTATLTINPLMGNINATYALLAREYCSLATRVDFNVYSYESEWAVGMELWSNRRPAGFLLGASPSNDFEPEPHPPRKKERSFQAKMEWRLDDPEPEPEPQPTPKTRKNDEYKGVLKARLDNNLRMGLLWEGRAKSLIFSIGTGIDLHKLGEPFRSLGLEVQYSS |  |  |  | binds |  |  |

From PMC3182244
